PubChem BioAssay AID1259254 – NCATS | 2017

- Test: 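Gene knock-downs that lead to re-replication, shown by excess G2 DNA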 (primary screen)
- Cells: human HCT116 colorectal cancer cells
- Knock-down reagent: single siRNA against human genes
- Time to read-out: 3 days
- Read-out: 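Nuclei stained with Hoechst and imaged; cell-cycle phase assigned by DNA content; G2 share scaled per plate, non-targeting siRNA 0%, GMNN siRNA 100%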
- Reading the numbers: G2 robust z-score: higher = more G2 cells, more excess DNA replication
- Active means: 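Active siRNAs have a G2 robust z of 5 or more median absolute deviations over the median, which in these data means about 38% or higher of GMNN control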
Here is one part, drawn at random, of about 59,000 reagents. Over the whole deposit, about 1,550 (2.6%) got an active call. 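G2 share is only a proxy for re-replication; each gene was hit by three separate siRNAs, and active genes were retested.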 Reagents against one gene are numbered here. Further read-outs or replicates are left out here. Reagent sequences are not shown. The record does not give: the amount of reagent.

G2 robust z-score, by gene symbol and reagent
CHST2 (carbohydrate sulfotransferase 2): #1 0.101 inactive; #2 -0.0353 inactive; #3 -0.658 inactive
ZNF407 (zinc finger protein 407): #1 -0.0938 inactive; #2 -0.0422 inactive; #3 2.98 inactive
RECK (reversion inducing cysteine rich protein with kazal motifs): #1 -0.664 inactive; #2 -0.728 inactive; #3 -0.677 inactive
ATP6V1B2 (ATPase H+ transporting V1 subunit B2): #1 -0.792 inactive; #2 -0.506 inactive; #3 -0.906 inactive
IGSF22 (immunoglobulin superfamily member 22): #1 5.61 active; #2 -0.811 inactive; #3 -0.999 inactive
CCR9 (C-C motif chemokine receptor 9): #1 6.3 active; #2 -0.639 inactive; #3 -0.56 inactive
CAPNS1 (calpain small subunit 1): #1 -0.652 inactive; #2 0.167 inactive; #3 0.317 inactive
ACCS: #1 1.18 inactive; #2 -0.0838 inactive; #3 3.65 inactive
OR9K2 (olfactory receptor family 9 subfamily K member 2): #1 1.94 inactive; #2 0.318 inactive; #3 0.0326 inactive
ZNF292 (zinc finger protein 292): #1 -0.361 inactive; #2 2.6 inactive; #3 4.53 inactive

Laid out differently: results already given
{"gene symbol": "CCR9 (C-C motif chemokine receptor 9)", "siRNA no.": 3, "G2 robust z-score": -0.56, "activity call": "inactive"}
{"gene symbol": "CAPNS1 (calpain small subunit 1)", "siRNA no.": 1, "G2 robust z-score": -0.652, "activity call": "inactive"}
{"gene symbol": "CAPNS1 (calpain small subunit 1)", "siRNA no.": 2, "G2 robust z-score": 0.167, "activity call": "inactive"}
{"gene symbol": "CAPNS1 (calpain small subunit 1)", "siRNA no.": 3, "G2 robust z-score": 0.317, "activity call": "inactive"}

The listing continues:
G2 robust z-score, by gene symbol and reagent
ERCC8 (ERCC excision repair 8, CSA ubiquitin ligase complex subunit): #1 2.81 inactive; #2 -0.346 inactive; #3 0.0359 inactive
MRPL47 (mitochondrial ribosomal protein L47): #1 -1.4 inactive; #2 -0.0769 inactive; #3 -0.328 inactive
BEX2 (brain expressed X-linked 2): #1 -0.204 inactive; #2 0.312 inactive; #3 0.0697 inactive
PTGDS (prostaglandin D2 synthase): #1 -1.2 inactive; #2 0.932 inactive; #3 1.97 inactive
AGAP4 (ArfGAP with GTPase domain, ankyrin repeat and PH domain 4): #1 -0.434 inactive; #2 -0.846 inactive; #3 -0.434 inactive
COMT (catechol-O-methyltransferase): #1 -1.07 inactive; #2 2.06 inactive; #3 -0.421 inactive
CD151 (CD151 molecule (Raph blood group)): #1 0.448 inactive; #2 0.645 inactive; #3 1.57 inactive
CRIP2 (cysteine rich protein 2): #1 -1.24 inactive; #2 -0.729 inactive; #3 0.741 inactive
CENPA (centromere protein A): #1 1.04 inactive; #2 3.67 inactive; #3 -0.247 inactive
CDCA7L (cell division cycle associated 7 like): #1 0.7 inactive; #2 -0.885 inactive; #3 -0.261 inactive
CSRP2 (cysteine and glycine rich protein 2): #1 0.439 inactive; #2 1.21 inactive; #3 0.921 inactive
ANKRD33B (ankyrin repeat domain 33B): #1 0.454 inactive; #2 -0.658 inactive; #3 0.652 inactive
SLC25A15: #1 -0.706 inactive; #2 4.42 inactive; #3 -1.13 inactive
